Experimental data: the supplement of paper PMC12819154, “High-throughput peptide-centric local stability assay extends protein–ligand identification to membrane proteins, tissues and bacteria” (Nature Structural & Molecular Biology, 2025)
The list shows a part of the results. Small differences around the control level are noise.

By UniProt entry, the sequences of proteins in these tests, tags left out. Where a name states a change or a piece, a line headed by the entry shows the natural chain unless it says otherwise.
UniProt Q8NBZ0, whole entry: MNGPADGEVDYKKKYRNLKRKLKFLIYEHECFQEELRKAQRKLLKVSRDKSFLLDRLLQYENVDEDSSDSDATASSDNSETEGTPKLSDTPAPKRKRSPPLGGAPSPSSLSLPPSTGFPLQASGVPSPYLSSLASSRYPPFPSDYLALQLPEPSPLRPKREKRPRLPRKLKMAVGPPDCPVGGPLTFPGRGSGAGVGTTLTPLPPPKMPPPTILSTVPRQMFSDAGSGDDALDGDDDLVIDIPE
UniProt Q8NEC7: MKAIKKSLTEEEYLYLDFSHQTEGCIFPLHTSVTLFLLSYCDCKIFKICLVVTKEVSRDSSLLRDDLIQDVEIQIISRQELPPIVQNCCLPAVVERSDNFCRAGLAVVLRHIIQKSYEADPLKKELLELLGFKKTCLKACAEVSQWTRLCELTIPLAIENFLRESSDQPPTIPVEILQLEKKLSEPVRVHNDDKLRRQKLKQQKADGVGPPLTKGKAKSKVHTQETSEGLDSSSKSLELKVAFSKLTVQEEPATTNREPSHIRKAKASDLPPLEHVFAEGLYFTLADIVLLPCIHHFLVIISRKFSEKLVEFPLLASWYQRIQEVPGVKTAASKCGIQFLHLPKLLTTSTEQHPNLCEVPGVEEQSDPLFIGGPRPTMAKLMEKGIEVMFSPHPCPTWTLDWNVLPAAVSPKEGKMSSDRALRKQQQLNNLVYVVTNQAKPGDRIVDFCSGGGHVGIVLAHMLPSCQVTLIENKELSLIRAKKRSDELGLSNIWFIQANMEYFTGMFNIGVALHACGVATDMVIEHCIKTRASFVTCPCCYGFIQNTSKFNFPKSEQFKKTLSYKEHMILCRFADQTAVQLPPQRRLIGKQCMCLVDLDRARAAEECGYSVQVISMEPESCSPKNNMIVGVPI
UniProt Q8NHG7: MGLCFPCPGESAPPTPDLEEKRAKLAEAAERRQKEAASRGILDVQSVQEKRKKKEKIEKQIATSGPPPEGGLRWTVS
UniProt Q8NFH5: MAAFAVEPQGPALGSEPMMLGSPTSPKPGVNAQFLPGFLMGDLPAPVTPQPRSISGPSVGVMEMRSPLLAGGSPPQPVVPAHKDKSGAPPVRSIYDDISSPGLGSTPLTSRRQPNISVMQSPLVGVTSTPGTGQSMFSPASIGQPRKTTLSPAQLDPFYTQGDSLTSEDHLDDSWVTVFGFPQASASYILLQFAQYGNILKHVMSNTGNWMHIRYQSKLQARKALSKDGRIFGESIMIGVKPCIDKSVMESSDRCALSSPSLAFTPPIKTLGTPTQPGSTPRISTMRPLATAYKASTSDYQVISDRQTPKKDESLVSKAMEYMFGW
UniProt Q8N823: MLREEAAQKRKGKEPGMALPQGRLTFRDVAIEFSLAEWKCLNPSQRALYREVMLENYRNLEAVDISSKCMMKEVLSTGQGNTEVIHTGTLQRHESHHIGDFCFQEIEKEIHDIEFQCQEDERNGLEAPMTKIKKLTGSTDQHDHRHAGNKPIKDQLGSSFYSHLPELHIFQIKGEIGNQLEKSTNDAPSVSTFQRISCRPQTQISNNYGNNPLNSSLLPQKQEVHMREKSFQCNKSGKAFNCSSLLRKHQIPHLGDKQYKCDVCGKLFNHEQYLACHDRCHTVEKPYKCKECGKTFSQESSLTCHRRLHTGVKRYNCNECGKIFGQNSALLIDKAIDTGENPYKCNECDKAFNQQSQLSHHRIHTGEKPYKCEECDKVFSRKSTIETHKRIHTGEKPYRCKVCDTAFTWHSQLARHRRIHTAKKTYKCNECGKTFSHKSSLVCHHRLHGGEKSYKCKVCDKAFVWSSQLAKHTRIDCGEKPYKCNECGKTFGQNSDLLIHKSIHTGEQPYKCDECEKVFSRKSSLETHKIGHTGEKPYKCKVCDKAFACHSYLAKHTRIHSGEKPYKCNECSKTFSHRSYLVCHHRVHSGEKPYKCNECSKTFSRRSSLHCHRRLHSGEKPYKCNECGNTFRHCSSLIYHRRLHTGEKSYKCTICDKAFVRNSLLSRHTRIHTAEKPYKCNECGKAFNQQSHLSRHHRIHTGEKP
UniProt Q8N488: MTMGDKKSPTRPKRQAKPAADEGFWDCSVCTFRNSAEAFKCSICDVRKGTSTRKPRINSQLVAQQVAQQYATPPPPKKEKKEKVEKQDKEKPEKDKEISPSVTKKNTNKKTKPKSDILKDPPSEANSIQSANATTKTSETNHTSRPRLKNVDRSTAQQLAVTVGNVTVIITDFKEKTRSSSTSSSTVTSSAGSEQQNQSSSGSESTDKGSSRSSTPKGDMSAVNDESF
UniProt Q8N2I9: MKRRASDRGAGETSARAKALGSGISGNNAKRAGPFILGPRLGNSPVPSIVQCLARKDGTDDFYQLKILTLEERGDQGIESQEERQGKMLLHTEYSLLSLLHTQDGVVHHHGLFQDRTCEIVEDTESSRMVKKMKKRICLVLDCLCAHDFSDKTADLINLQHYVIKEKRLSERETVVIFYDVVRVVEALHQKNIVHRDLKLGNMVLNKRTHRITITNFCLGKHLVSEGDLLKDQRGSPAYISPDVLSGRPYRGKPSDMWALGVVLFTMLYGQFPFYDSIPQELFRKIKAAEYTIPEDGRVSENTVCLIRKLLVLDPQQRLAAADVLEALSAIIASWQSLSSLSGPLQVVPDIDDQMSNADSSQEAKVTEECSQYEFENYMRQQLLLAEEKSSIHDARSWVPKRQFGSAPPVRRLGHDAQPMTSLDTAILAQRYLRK
UniProt Q8N5M9: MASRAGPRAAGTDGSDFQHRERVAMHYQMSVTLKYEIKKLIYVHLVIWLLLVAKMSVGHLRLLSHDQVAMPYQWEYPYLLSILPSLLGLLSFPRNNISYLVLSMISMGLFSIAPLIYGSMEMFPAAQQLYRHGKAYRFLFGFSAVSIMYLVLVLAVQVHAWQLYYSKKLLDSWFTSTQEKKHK
UniProt Q8NFP7: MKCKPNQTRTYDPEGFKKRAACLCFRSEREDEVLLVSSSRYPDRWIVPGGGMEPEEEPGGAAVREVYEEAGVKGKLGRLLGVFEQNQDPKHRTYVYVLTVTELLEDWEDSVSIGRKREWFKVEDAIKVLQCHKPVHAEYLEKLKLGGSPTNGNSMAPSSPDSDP
UniProt Q8N2M8: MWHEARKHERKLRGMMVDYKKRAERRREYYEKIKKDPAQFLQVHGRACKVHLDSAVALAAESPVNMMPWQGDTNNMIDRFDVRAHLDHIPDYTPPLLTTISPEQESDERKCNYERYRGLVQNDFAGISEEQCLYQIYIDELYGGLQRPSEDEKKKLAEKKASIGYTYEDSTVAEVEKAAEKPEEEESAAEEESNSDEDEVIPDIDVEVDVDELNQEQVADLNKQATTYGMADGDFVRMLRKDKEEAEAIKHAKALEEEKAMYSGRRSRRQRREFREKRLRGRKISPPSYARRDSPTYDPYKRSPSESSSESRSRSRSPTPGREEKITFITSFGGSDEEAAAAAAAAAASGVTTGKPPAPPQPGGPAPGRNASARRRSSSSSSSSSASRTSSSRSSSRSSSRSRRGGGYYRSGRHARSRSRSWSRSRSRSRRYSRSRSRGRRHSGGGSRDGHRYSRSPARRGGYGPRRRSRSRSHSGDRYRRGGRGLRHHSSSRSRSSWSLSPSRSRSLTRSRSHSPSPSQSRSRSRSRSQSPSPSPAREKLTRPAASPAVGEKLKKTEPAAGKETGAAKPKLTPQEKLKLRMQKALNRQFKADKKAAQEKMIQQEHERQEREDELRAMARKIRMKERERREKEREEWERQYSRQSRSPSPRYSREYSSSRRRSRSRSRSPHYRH
UniProt Q8N4Q0: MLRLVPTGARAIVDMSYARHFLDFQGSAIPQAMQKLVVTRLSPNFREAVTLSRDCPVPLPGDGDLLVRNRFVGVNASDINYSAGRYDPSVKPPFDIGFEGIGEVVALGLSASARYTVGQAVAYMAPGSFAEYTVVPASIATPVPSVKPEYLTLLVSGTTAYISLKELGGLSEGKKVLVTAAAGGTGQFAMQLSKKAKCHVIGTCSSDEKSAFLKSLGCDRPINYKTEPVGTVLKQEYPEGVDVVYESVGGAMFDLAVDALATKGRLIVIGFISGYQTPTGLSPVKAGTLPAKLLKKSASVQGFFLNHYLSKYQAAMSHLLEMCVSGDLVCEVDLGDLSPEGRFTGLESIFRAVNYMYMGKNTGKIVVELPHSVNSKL
UniProt Q8N9N5: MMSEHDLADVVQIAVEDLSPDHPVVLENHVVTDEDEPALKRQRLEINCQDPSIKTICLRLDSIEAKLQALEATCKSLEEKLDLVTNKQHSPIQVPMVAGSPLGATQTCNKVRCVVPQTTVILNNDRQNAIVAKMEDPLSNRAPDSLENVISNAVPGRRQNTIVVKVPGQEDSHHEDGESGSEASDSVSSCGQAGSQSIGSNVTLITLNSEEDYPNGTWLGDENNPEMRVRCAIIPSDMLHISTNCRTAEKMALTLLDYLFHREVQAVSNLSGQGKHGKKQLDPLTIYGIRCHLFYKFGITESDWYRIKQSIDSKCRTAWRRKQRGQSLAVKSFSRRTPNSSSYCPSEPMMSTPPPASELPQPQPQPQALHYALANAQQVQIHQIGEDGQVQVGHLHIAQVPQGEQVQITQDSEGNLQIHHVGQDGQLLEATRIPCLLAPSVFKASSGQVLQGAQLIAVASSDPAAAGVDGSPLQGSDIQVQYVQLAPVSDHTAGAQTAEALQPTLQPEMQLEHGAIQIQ
UniProt Q8N1G2: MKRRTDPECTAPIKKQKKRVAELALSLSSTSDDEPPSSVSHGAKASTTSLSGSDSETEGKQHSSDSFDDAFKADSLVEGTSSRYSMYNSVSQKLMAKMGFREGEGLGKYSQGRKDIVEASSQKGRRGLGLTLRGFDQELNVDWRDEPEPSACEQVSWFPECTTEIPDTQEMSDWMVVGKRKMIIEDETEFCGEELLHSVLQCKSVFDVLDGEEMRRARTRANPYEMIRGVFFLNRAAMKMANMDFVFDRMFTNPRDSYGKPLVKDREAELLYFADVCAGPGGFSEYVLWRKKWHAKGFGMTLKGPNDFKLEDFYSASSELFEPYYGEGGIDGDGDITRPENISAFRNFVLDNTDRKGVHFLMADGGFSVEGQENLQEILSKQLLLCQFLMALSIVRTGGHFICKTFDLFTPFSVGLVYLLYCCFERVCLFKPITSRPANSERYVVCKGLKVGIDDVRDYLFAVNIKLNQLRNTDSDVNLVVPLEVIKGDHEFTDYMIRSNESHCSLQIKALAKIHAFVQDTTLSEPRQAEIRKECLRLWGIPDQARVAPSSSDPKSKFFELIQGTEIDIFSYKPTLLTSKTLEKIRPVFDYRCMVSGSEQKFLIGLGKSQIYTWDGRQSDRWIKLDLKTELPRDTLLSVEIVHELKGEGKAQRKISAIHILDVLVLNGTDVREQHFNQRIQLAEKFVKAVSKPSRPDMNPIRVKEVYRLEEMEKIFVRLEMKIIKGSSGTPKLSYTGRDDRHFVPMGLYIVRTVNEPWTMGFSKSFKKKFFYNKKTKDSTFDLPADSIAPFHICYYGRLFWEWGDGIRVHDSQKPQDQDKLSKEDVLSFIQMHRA
UniProt Q8NEJ9: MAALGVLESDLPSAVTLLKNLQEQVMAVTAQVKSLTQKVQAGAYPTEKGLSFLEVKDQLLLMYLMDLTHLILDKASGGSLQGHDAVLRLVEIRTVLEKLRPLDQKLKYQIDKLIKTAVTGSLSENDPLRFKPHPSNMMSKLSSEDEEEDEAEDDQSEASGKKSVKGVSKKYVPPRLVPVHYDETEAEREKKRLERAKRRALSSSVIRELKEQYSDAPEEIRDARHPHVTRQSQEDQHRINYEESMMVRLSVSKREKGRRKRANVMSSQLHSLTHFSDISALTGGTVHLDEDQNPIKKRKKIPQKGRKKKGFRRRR
UniProt Q8NHP1: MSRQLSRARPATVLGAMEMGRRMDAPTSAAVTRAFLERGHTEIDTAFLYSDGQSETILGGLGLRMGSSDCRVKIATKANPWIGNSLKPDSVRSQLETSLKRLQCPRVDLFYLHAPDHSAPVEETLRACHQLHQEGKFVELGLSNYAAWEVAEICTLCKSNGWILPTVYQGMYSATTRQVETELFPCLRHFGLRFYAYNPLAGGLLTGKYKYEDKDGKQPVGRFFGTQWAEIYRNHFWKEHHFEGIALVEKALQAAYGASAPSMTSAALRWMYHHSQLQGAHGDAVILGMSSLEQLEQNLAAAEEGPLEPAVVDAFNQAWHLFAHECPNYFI
UniProt Q8N680: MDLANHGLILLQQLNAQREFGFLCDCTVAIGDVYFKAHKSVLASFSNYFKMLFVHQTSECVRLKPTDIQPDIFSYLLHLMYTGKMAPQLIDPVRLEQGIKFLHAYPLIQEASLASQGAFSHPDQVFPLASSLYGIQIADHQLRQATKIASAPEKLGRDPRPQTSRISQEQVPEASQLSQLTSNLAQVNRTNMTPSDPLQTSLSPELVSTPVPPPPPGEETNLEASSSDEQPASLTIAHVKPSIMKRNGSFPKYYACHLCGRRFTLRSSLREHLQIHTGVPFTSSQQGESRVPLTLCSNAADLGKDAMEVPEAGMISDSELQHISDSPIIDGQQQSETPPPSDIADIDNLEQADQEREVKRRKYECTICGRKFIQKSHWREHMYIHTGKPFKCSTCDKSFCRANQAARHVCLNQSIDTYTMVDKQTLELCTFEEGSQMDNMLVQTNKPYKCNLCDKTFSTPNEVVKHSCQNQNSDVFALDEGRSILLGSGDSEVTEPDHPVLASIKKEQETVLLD

Compound: Cc1nc(Nc2ncc(C(=O)Nc3c(C)cccc3Cl)s2)cc(N2CCN(CCO)CC2)n1 [dasatinib]
Test: log2 fold change of tryptic peptide abundance, ligand vs vehicle (limited proteolysis) (log2 ratio); higher = more trypsin-susceptible (destabilized)
Conditions: ligand concentration: 5 uM; sample: K562 cleared lysate

Target | log2 fold change
INO80E (peptide sequence: MPPPTILSTVPR, peptide start residue: 208) (UniProt Q8NBZ0) | 0.135
REXO1 (peptide sequence: SAEAPALAPR, peptide start residue: 121) (UniProt Q8N1G1) | -0.334
SPC24 (peptide sequence: ELEELKEIEADLER, peptide start residue: 107) (UniProt Q8NBT2) | 0.364
GSTCD (peptide sequence: FADQTAVQLPPQRR, peptide start residue: 573) (UniProt Q8NEC7) | 0.174
SVIP (peptide sequence: GILDVQSVQEK, peptide start residue: 40) (UniProt Q8NHG7) | -0.155
DTWD1 (peptide sequence: DISFHLQK, peptide start residue: 151) (UniProt Q8N5C7) | -0.166
KRI1 (peptide sequence: DATFYNR, peptide start residue: 84) (UniProt Q8N9T8) | 0.2
NUP35 (peptide sequence: HVMSNTGNWMHIR, peptide start residue: 202) (UniProt Q8NFH5) | -0.346
UniProt Q8N823 (peptide sequence: CEECDKVFSR, peptide start residue: 511) | -0.318
ARFGAP2 (peptide sequence: AAEPNKTEIQTLFKR, peptide start residue: 2) (UniProt Q8N6H7) | -0.158
UniProt Q8NB78 (peptide sequence: EIQLTPQIAK, peptide start residue: 156) | -0.306
RYBP (peptide sequence: DKEISPSVTK, peptide start residue: 95) (UniProt Q8N488) | 0.208
STK40 (peptide sequence: GDQGIESQEER, peptide start residue: 74) (UniProt Q8N2I9) | -0.41
JAGN1 (peptide sequence: AAGTDGSDFQHR, peptide start residue: 9) (UniProt Q8N5M9) | 0.137
UniProt Q8NFP7 (peptide sequence: PVHAEYLEK, peptide start residue: 134) | 0.436
UniProt Q8N2M8 (peptide sequence: EKEREEWER, peptide start residue: 631) | -0.0845
ZADH2 (peptide sequence: HFLDFQGSAIPQAMQK, peptide start residue: 20) (UniProt Q8N4Q0) | 0.197
UniProt Q8NB25 (peptide sequence: LQNELDLTK, peptide start residue: 583) | 0.0424
FNBP4 (peptide sequence: TKMPSLVK, peptide start residue: 941) (UniProt Q8N3X1) | 0.296
BANP (peptide sequence: LEINCQDPSIK, peptide start residue: 44) (UniProt Q8N9N5) | 0.408
UniProt Q8N8J7 (peptide sequence: NLINMGFTR, peptide start residue: 81) | 0.379
UniProt Q8N1G2 (peptide sequence: LWGIPDQAR, peptide start residue: 538) | 0.14
HELB (peptide sequence: VYVIAEESQLR, peptide start residue: 923) (UniProt Q8NG08) | -0.297
NGDN (peptide sequence: VQAGAYPTEK, peptide start residue: 39) (UniProt Q8NEJ9) | -0.279
AKR7L (peptide sequence: SQLETSLKR, peptide start residue: 121) (UniProt Q8NHP1) | 0.0871
ZBTB2 (peptide sequence: SILLGSGDSEVTEPDHPVLASIKK, peptide start residue: 483) (UniProt Q8N680) | 0.0814
NIN (peptide sequence: LQQENSILR, peptide start residue: 798) (UniProt Q8N4C6) | 0.298
UniProt Q8NDF8 (peptide sequence: DFLPLETTNNNNNHHQPGAWAR, peptide start residue: 20) | 0.331
PAF1 (peptide sequence: FITYPFDQNR, peptide start residue: 48) (UniProt Q8N7H5) | -0.308

Some values from above.
UniProt Q8NB25 (peptide sequence: LQNELDLTK, peptide start residue: 583) | log2 fold change: 0.0424
REXO1 (peptide sequence: SAEAPALAPR, peptide start residue: 121) (UniProt Q8N1G1) | log2 fold change: -0.334
